Source: PubChem BioAssay AID743454 (Peter MacCallum Cancer Centre, 2014)
Purpose: 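Search for knock-downs that restore vorinostat killing in resistant colon cancer cells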 (primary screen). System: human HCT116-VR colon cancer cells, selected for vorinostat resistance. Reagent: siRNA pool against human genes, 40 nM siRNA pool. Timing: vorinostat for 24 h, read-out about 72 h after transfection. Treatment: vorinostat at 2.5 µM final. Read-out: 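Two measures, CellTiter-Fluor viability and luminescent caspase 3/7 activity, each as fold change against same-plate mock wells, mean of duplicates, then screen-wide robust z-score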. Reading the numbers: viability robust z-score: higher = more viable cells than screen typical; caspase robust z-score: higher = more caspase 3/7 activity than screen typical. Hit rule: 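a knock-down is a hit when classed RV1 or RV2 for lowered viability, or CA1 or CA2 for caspase activation; those lethal without drug were dropped; hits were retested singly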.
In all, the deposit lists about 18,000 reagents; this is a random part of them. Of all reagents, 450 (2.5%) were called active. 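Single biological run; no consistent viability z cut-off exists, so the class columns, not z-scores, define the calls.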 Entries without a mark were called inactive.

Which result is listed for CMBL [SID152156408]?
viability hit class: no change; caspase hit class: no change; viability robust z-score: -0.39; caspase robust z-score: -0.3

With CCDC8 [SID152156654], what was measured?
viability hit class: no change; caspase hit class: no change; viability robust z-score: -0.58; caspase robust z-score: 2.29

For ANKRD37 [SID152147735], what does the deposit list?
viability hit class: no change; caspase hit class: no change; viability robust z-score: -0.1; caspase robust z-score: -1.12

What did the screen give for FAM167A [SID134319247]?
viability hit class: no change; caspase hit class: no change; viability robust z-score: -0.74; caspase robust z-score: 0.96

What is on record for LRP11 [SID152148292]?
viability hit class: no change; caspase hit class: no change; viability robust z-score: -1.64; caspase robust z-score: -0.29

For CHAF1B [SID134323694], what was measured?
viability hit class: no change; caspase hit class: no change; viability robust z-score: -1.77; caspase robust z-score: -0.69

What did the screen give for HARS1 [SID134317637]?
viability hit class: no change; caspase hit class: no change; viability robust z-score: 0.18; caspase robust z-score: 0.9

Which result is listed for PSG3 [SID152153291]?
viability hit class: no change; caspase hit class: no change; viability robust z-score: 0.92; caspase robust z-score: 0.11

With CCL26 [SID152149157], how do the results read?
viability hit class: no change; caspase hit class: no change; viability robust z-score: -1.63; caspase robust z-score: 1.75

Which result is listed for SHTN1 [SID135623098]?
viability hit class: no change; caspase hit class: no change; viability robust z-score: -1.21; caspase robust z-score: 3.35

How did the screen score GPR88 [SID152150100]?
viability hit class: no change; caspase hit class: no change; viability robust z-score: -0.07; caspase robust z-score: 0.48

For TPPP3 [SID152154816], what does the deposit list?
viability hit class: no change; caspase hit class: no change; viability robust z-score: -0.88; caspase robust z-score: 3.4

Which result is listed for DYM [SID152148978]?
viability hit class: no change; caspase hit class: no change; viability robust z-score: 0.86; caspase robust z-score: 0.88

How did the screen score ADGRD2 [SID152152666]?
viability hit class: no change; caspase hit class: no change; viability robust z-score: 0.92; caspase robust z-score: -1.3

For UBE2E3 [SID134313694], what was measured?
viability hit class: no change; caspase hit class: no change; viability robust z-score: -0.86; caspase robust z-score: 0.56

With MRPL33 [SID152149337], what was measured?
viability hit class: no change; caspase hit class: no change; viability robust z-score: -1.41; caspase robust z-score: -0.96

For OR4K5 [SID134329926], what does the deposit list?
viability hit class: no change (active); caspase hit class: CA1 (caspase activation); viability robust z-score: -1.52; caspase robust z-score: 5.21

With OR4A16 [SID134329894], what does the deposit list?
viability hit class: no change; caspase hit class: no change; viability robust z-score: 0.57; caspase robust z-score: -0.98

Which result is listed for ZDHHC15 [SID134320174]?
viability hit class: no change; caspase hit class: no change; viability robust z-score: 0.5; caspase robust z-score: -0.41

How did the screen score HDAC9 [SID152149824]?
viability hit class: no change; caspase hit class: no change; viability robust z-score: -0.64; caspase robust z-score: 0.7

What did the screen give for TTC39A [SID135624247]?
viability hit class: no change; caspase hit class: no change; viability robust z-score: -1.48; caspase robust z-score: 4.57

Laid out differently: results already given.
| gene | PubChem SID | viability hit class | caspase hit class | viability robust z-score | caspase robust z-score |
| --- | --- | --- | --- | --- | --- |
| ADGRD2 | SID152152666 | no change | no change | 0.92 | -1.3 |
| UBE2E3 | SID134313694 | no change | no change | -0.86 | 0.56 |
| MRPL33 | SID152149337 | no change | no change | -1.41 | -0.96 |
